Some entries share one result that the patent states for a list of compounds.
Experiment: Absorption and emission spectra in solution
Format: physicochemical
Text: Expectedly, the emission spectrum of TBT-2(1P-DPA), and TBT-2(2P-DPA) both ends below 1000 nm, while the emission maximum of TBT-2(TP-DPA) was 1046 nm when upon 808 nm excitation (FIG. 3d). […] The experimental characterization is in consistency with our theoretical hypothesis, which made TBT-2(TP-DPA) ideal candidates as the template of NIR-II theranostic agents.

Q: For `CCCCC(CC)Cn1nc2c(-c3ccc(N(c4ccc(OC)cc4)c4ccc(OC)cc4)cc3)c3c(c(-c4ccc(N(c5ccc(OC)cc5)c5ccc(OC)cc5)cc4)c2n1)N=S=N3` (stereo not shown) [TBT-2(1P-DPA)], which emission spectrum ends is on record?
A: below 1000 nm

Source: patent publication US20260137814A1, “FLUORESCENT COMPOUNDS FOR ACCELERATED CANCER THERANOSTIC” (The Hong Kong University of Science and Technology, priority 2022, published 2026)
